# Where a name gives a salt, the structure may show the parent alone. Some of the results follow. This data set is noisy: repeats of one test often differ as much as different tests do.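 Human fetal ventral-midbrain neural progenitor line ReNCell VM, differentiated without mitogens. Images stained for doublecortin (early neurons) or tyrosine hydroxylase (dopaminergic neurons) were scored by blinded raters against untreated wells (0 = no change). Repeats and both raters were averaged, and compounds averaging 2 or higher were picked as hits for retesting.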
# System: ReNCell VM
# Assay: neuronal differentiation score (DCX+ cell fraction vs untreated, manual image score) (score (-3 to 3)); higher = more neuronal differentiation
# Details: library: LOPAC; 2 uM; 2 weeks
row,Compound,neuronal differentiation score
1,N=C(N)c1ccc(N)cc1 [4-Aminobenzamidine dihydrochloride],inactive: 0
2,NCCSSCCN [Cystamine dihydrochloride],inactive: 0
3,NC(=S)c1ccc[n+]([C@@H]2O[C@@H](COP(=O)([O-])OP(=O)(O)OC[C@H]3O[C@@H](n4cnc5c(N)ncnc54)C(OP(=O)(O)O)[C@H]3O)C(O)C2O)c1 (stereo partly specified) [Thio-NADP sodium],inactive: 0
4,COc1ccc2c(c1)CC[C@@H]1[C@@H]2CC[C@]2(C)[C@@H](NCCCCCCN3C(=O)CCC3=O)CC[C@@H]12,inactive: 0
5,CO[C@@]1(NC(=O)CSCC#N)C(=O)N2C(C(=O)O)=C(CSc3nnnn3C)CS[C@@H]21 [Cefmetazole sodium],inactive: 0

# Same assay, conditions: library: Phytochemical; 2 uM; 2 weeks
row,Compound,neuronal differentiation score
1,C[C@@H]1CC[C@@]2(OC1)O[C@H]1C[C@H]3[C@@H]4CC=C5C[C@@H](O)CC[C@]5(C)[C@H]4CC[C@]3(C)[C@H]1[C@@H]2C [Diosgenin],inactive: 0
2,Cn1c(-c2ccc3c(c2)OCO3)cc(=O)c2ccccc21 [Graveoline],inactive: 0
3,COc1cc2c(cc1OC)-c1cc3ccc(OC)c(OC)c3c[n+]1CC2 [Palmatine chloride],inactive: 0
4,CC1O[C@H](O[C@]2(O[C@H]3CC[C@@]4(C)C(=CC[C@H]5[C@@H]6C[C@H]7[C@H]([C@H](C)[C@H]8CC[C@H](C)CN87)[C@@]6(C)CC[C@@H]54)C3)C[C@@H](O[C@@H]3OC(CO)[C@@H](O)[C@@H](O)C3O)[C@@H](O)C(CO)O2)C(O)[C@@H](O)[C@H]1O (stereo partly drawn) [Solanine alpha],inactive: 0

# Same assay, conditions: library: Prestwick; 2 uM; 2 weeks
row,Compound,neuronal differentiation score
1,CNCCC=C1c2ccccc2C=Cc2ccccc21 [Norcyclobenzaprine],inactive: 0
2,O=C1C(CC[S+]([O-])c2ccccc2)C(=O)N(c2ccccc2)N1c1ccccc1 (stereo unspecified) [Sulfinpyrazone],inactive: 0
3,CC(C)(C(=O)O)c1ccc(C(O)CCCN2CCC(C(O)(c3ccccc3)c3ccccc3)CC2)cc1 (stereo unspecified) [Fexofenadine HCl],inactive: 0
4,Nc1ccc(S(=O)(=O)c2ccc(N)cc2)cc1 [Dapsone],inactive: 0
5,CN(C)C/C=C(/c1ccc(Br)cc1)c1cccnc1 [Zimelidine dihydrochloride monohydrate],inactive: 0
6,CC1=C(C(=O)O)N2C(=O)[C@@H](NC(=O)[C@H](N)c3ccc(O)cc3)[C@H]2SC1 [Cefadroxil],inactive: 0
7,CCCCCCCCNC(C)C(O)c1ccc(SC(C)C)cc1 (stereo unspecified) [Suloctidil],inactive: 0

# Part of the list above in order of number of heavy atoms, smallest number first:
row,Compound,neuronal differentiation score
4,Nc1ccc(S(=O)(=O)c2ccc(N)cc2)cc1 [Dapsone],inactive: 0
6,CC1=C(C(=O)O)N2C(=O)[C@@H](NC(=O)[C@H](N)c3ccc(O)cc3)[C@H]2SC1 [Cefadroxil],inactive: 0
2,O=C1C(CC[S+]([O-])c2ccccc2)C(=O)N(c2ccccc2)N1c1ccccc1 (stereo unspecified) [Sulfinpyrazone],inactive: 0
